# Test results as given in PubChem BioAssay AID504444 (National Center for Advancing Translational Sciences (NCATS), 2011).
# Out of some 360,000 compounds screened, about 7,500 (2.1%) were called active. The shares of active, inactive and inconclusive entries below differ from those in the screen. Calls follow the shape of the dose curve; as a rule, active = well fitted inhibition curve with a large enough effect; inconclusive = small, poorly fitted or top-dose-only effect, or effect the other way; inactive = flat fitted curve, though single readings scatter. Potencies beside an inconclusive call are fits to weak or partial responses and may not hold up.
# Experiment: Nrf2 qHTS screen for inhibitors; also: nearly all actives have a fitted effect of over 60% in size
# Conditions: A549 ARE-Fluc reporter, luciferase luminescence, 18-24 h; series mostly up to 46 µM
# Procedure, shortened: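 A549 ARE_Fluc cells (5000/well, 5% FBS OPTI-MEM) pre-incubated 2 h, then treated with compounds 18-24 h at 37C/5% CO2 in concentration-response. CellTiter-Fluor viability read first; BugLite luciferase luminescence after 15 min at room temperature gives Nrf2 activity.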
# Potency is read from the fitted curve at half-maximal effect.
row,SMILES,Potency
1,O=[N+]([O-])c1cccc(-c2noc(-c3ccco3)n2)c1,"inconclusive: 6.51 µM [activator, partial curve]"
2,Cc1ccccc1CNC(=O)CCc1ccccc1,"inconclusive: 14.6 µM [activator, partial curve]"
3,O=C1CC(c2ccccc2)Sc2ccccc2N1Cc1ccc(F)cc1 (stereo not given),"inconclusive: 23.1 µM [falling, single point]"
4,Cc1cc(C)n(-c2ccc(NC(=O)C3CCCCN3C(=O)c3ccc(C)s3)cc2)n1 (stereo not given),"inconclusive: 29.1 µM [falling, single point]"
5,CC(C)(CNC(=O)c1ccc(S(=O)(=O)Nc2ccccc2F)cc1)N1CCOCC1,"inconclusive: 3.26 µM [falling, partial curve]"
6,Cc1ccc(S(=O)(=O)N2CCN(c3ncnc4scc(-c5ccccc5)c34)CC2)cc1,"inconclusive: 18.4 µM [falling, single point]"
7,CC(=O)Nc1ccc(S(=O)(=O)Oc2ccccc2N2CCCCC2)cc1,"inconclusive: 20.6 µM [falling, partial curve, poor fit]"
8,COc1ccccc1CNC(=O)CCCN1C(=O)COc2ccc(C)cc21,"inconclusive: 3.26 µM [activator, partial curve, poor fit]"
9,O=C(CC(=O)c1ccccn1)c1ccccc1,inactive
10,CCCCN1C(=O)/C(=C/C=C2\SCCN2C)SC1=S,"inconclusive: 2.06 µM [activator, full curve]"
11,Cc1ccc(S(=O)(=O)N(Cc2ccccc2)c2ccccc2C(=O)NCc2ccco2)cc1,active: 5.17 µM
12,COc1ccc(NC(=O)CCS(=O)(=O)c2ccc3c(c2)oc(=O)n3C)cc1,inactive
13,Cc1ccccc1Cn1cc(S(=O)(=O)CC(=O)Nc2nccs2)c2ccccc21,"inconclusive: 20.6 µM [falling, single point]"
14,Cc1cc(SCc2ccc([N+](=O)[O-])cc2)nc(=O)[nH]1,"inconclusive: 29.1 µM [falling, single point]"
15,Cc1ccc(NC(=O)COCC(=O)Nc2ccc(F)cc2)cc1,"inconclusive: 18.4 µM [activator, single point]"
16,CCCCCOC(=O)C1=C(C)NC(=O)NC1c1ccc2c(c1)OCO2 (stereo not given),"inconclusive: 11.6 µM [falling, partial curve]"
17,C=C1CC2C(CCC3(C)C2CCC3(O)C(C)=O)C2(C)CCC(=O)C=C12 (stereo not given),"inconclusive: 20.6 µM [falling, single point]"
18,Nn1cnc2scc(-c3ccco3)c2c1=O,inactive
19,O=C(/C=C/c1ccc(Cl)cc1)N(c1ccccn1)C1CCCCC1,"inconclusive: 6.51 µM [falling, partial curve, poor fit]"
20,O=C(CSc1nnc2n1CCCN2)c1ccc(Cl)cc1,inactive
21,Cc1cccc(C(=O)Nc2cccc(NC(=O)c3ccccc3)c2)c1,"inconclusive: 29.1 µM [falling, single point]"
22,CC(=O)N1CCN(CC(=O)Nc2cc(S(=O)(=O)N3CCOCC3)ccc2C)CC1,"inconclusive: 14.6 µM [falling, partial curve, poor fit]"

# Already shown: an excerpt of the list.
row,SMILES,Potency
9,O=C(CC(=O)c1ccccn1)c1ccccc1,inactive
10,CCCCN1C(=O)/C(=C/C=C2\SCCN2C)SC1=S,"inconclusive: 2.06 µM [activator, full curve]"
11,Cc1ccc(S(=O)(=O)N(Cc2ccccc2)c2ccccc2C(=O)NCc2ccco2)cc1,active: 5.17 µM

# (more compounds)

row,SMILES,Potency
1,C=CCOC(=O)C1=C[C@@H](c2csc3ccccc23)C[C@@H](OCc2ccc(CO)cc2)O1,"inconclusive: 25.9 µM [falling, single point]"
2,CC(C)OC(=O)c1cccc(NC(=O)Cn2nnc3sc4c(c3c2=O)CCCC4)c1,"inconclusive: 11.6 µM [falling, single point]"
3,CCOc1ccccc1OCCC(=O)Nc1ccc(F)c(Cl)c1,"inconclusive: 6.51 µM [activator, single point]"
4,Cc1ccc(C(=O)OCC(=O)c2ccccc2)cc1,"inconclusive: 2.06 µM [activator, partial curve]"
5,Oc1ccc(C=NNc2ccccn2)c(O)c1,"inconclusive: 23.1 µM [falling, single point]"
6,O=C(Nc1ccc(Cl)c(Cl)c1)N(Cc1cccnc1)Cc1ccco1,"inconclusive: 25.9 µM [falling, single point]"
7,CC1Cc2ccccc2N1C(=S)NC(=O)c1ccc(Cl)cc1Cl (stereo not given),"inconclusive: 32.6 µM [falling, single point]"
8,CCN(C(=O)CSc1cc(C)c2cccc(C)c2n1)C1CCS(=O)(=O)C1 (stereo not given),"inconclusive: 13 µM [falling, partial curve, poor fit]"
9,CCCOc1ccc(CNC(=O)CCCn2ncn3c(cc4sc(CC)cc43)c2=O)cc1,active: 23.1 µM
10,Cc1ccc(S(=O)(=O)N2CCCCC2)cc1NC(=O)c1ccccc1Cl,"inconclusive: 32.6 µM [falling, single point]"
11,Cc1nc(Nc2cnc(/C=C/c3cc(C(=O)Nc4cccc(C(F)(F)F)c4)ccc3C)cn2)cc(N2CCNCC2)n1,"inconclusive: 23.1 µM [falling, partial curve]"
12,CN(c1ccccc1)S(=O)(=O)c1cccc(C(=O)Nc2ccc3c(c2)CCC3)c1,"inconclusive: 29.1 µM [falling, single point]"
13,Cc1ccc(Nc2ncccc2C(N)=O)cc1,"inconclusive: 5.17 µM [activator, partial curve]"
14,CCC(C)(C)NC(=O)/C=C/c1cnc2ccccc2n1,"inconclusive: 4.61 µM [activator, full curve, poor fit]"
15,CCOCCCNc1nc(C(F)(F)F)nc2c1nnn2Cc1ccccc1Cl,"inconclusive: 25.9 µM [falling, single point]"
16,CCNS(=O)(=O)c1ccc(NC(=O)CSc2nc(-c3ccco3)cc(C(F)(F)F)n2)cc1,"inconclusive: 18.4 µM [falling, single point]"
17,CCCOc1ccc(NC(=O)CC2C(=O)N(c3ccccc3)C(=O)N2Cc2ccco2)cc1 (stereo not given),"inconclusive: 2.06 µM [activator, partial curve]"
18,Cc1cccc(NC(=S)c2nc3ccccc3s2)c1,"inconclusive: 10.3 µM [activator, partial curve]"
19,Cc1cc(/C=N/NC(=O)c2ccccc2F)c(C)n1-c1ccccc1,"inconclusive: 1.03 µM [activator, partial curve]"
20,O=C(Cc1cccc([N+](=O)[O-])c1)Nc1cccc(C(=O)N2CCOCC2)c1,inactive
21,CC1CCc2nc(NC(=O)Nc3ccc4c(c3)OCO4)sc2C1 (stereo not given),"inconclusive: 2.31 µM [activator, full curve, poor fit]"
22,O=C(O)c1ccc(CNc2ncnc3nc[nH]c23)cc1,inactive

# Molecules listed so far that have an aryl methoxy group, in the order listed:
row,SMILES,Potency
8,COc1ccccc1CNC(=O)CCCN1C(=O)COc2ccc(C)cc21,"inconclusive: 3.26 µM [activator, partial curve, poor fit]"
12,COc1ccc(NC(=O)CCS(=O)(=O)c2ccc3c(c2)oc(=O)n3C)cc1,inactive

# More results.

row,SMILES,Potency
1,Nc1nc(Cl)nc2ccc(Br)cc12,"inconclusive: 1.64 µM [activator, partial curve, poor fit]"
2,Cc1cc(C(=O)N2CCN(c3ccccc3Cl)CC2)c(C)o1,"inconclusive: 14.6 µM [activator, partial curve]"
3,Cc1cc(C(=O)CSc2nnnn2-c2ccc(Cl)cc2)c(C)n1CC1CCCO1 (stereo not given),"inconclusive: 20.6 µM [falling, partial curve]"
4,Cc1nnc(-n2cnc3ccccc32)c2ccccc12,"inconclusive: 5.8 µM [activator, partial curve]"
5,Cc1cccc(C(=O)Nc2nnc(-c3cccnc3)o2)c1,"inconclusive: 18.4 µM [falling, partial curve]"
6,CCOc1ccc(NC(=O)NC(=O)N(C)S(=O)(=O)c2ccc(C)cc2)cc1,inactive
7,N/C(=N\OC(=O)/C=C/c1ccccc1)c1ccncc1,"inconclusive: 10.3 µM [activator, partial curve, poor fit]"
8,CC1(c2ccc3ccccc3c2)NC(=O)N(CC(=O)N2CCN(Cc3ccc(C#N)cc3)CC2)C1=O (stereo not given),active: 0.411 µM
9,O=C(O)Cc1sc(Nc2ccccc2)nc1-c1ccc(Cl)cc1,"inconclusive: 16.4 µM [activator, partial curve, poor fit]"
10,Cc1nnc(SCC(=O)Nc2ccccc2N2CCOCC2)s1,"inconclusive: 20.6 µM [activator, partial curve, poor fit]"
11,COc1ccc(C)cc1NC(=O)NNC(=O)c1cc2ccccc2cc1O,"inconclusive: 16.4 µM [falling, partial curve, poor fit]"
12,CN(c1ccc(OCc2ccc([N+](=O)[O-])cc2)cc1)S(=O)(=O)c1ccccc1,"inconclusive: 10.3 µM [falling, partial curve, poor fit]"
13,CCN(C(=O)c1cnc(NC(C)C)cc1C(F)(F)F)c1ccc(Cl)cc1,"inconclusive: 29.1 µM [falling, single point]"
14,Cc1ccc(S(=O)(=O)N2CCN(C(=O)c3cc(-c4ccc(Br)cc4)n[nH]3)CC2)c(C)c1,"inconclusive: 29.1 µM [activator, single point]"
15,CCN(CC)c1ccc(NC(=O)c2cccn2-c2nnc(N3CCCCC3)s2)c(C)c1,"inconclusive: 16.4 µM [falling, single point]"
16,Cc1c(C#N)c(O)[nH]c(=O)c1N=Nc1ccc(S(N)(=O)=O)cc1,"inconclusive: 16.4 µM [falling, single point]"
17,O=C(Nc1ccncc1)Nc1ccc(Br)cc1Cl,"inconclusive: 29.1 µM [falling, single point]"
18,Cc1nc(C(=O)Nc2ccc(Cl)cc2)sc1C1(C)CC(c2ccccc2)=NO1 (stereo not given),"inconclusive: 29.1 µM [falling, single point]"
19,CCCNc1nc2c(c(=O)n(C)c(=O)n2C)n1CCc1ccccc1,active: 4.11 µM
20,COc1ccc2c(c1OC)C(=O)N1c3ccccc3COC21 (stereo not given),"inconclusive: 2.31 µM [activator, full curve]"
21,Cc1ccc(Oc2ncnc3sccc23)cc1,"inconclusive: 8.2 µM [activator, partial curve, poor fit]"
